Like-named read-outs stand apart in the source and are kept apart here.
Assays:
[1] = cited from earlier work
M3 tumor = test: M3 transplanted mice, tumor area (lidocaine and epidoxorrubicine); assay type: in vivo
[2] = test system: copper sulfate intoxication
Histoplasma capsulatum = settings: TREATED ANIMALS
Mycoplasma pneumoniae = settings: 0.1 ml 0.2% i.p. twice a day 4 days, then 0.2 ml 0.2% once a day; 10 days after beginning of infection
[3] = test system: M3 mammary adenocarcinoma

Q: With `CCN(CC)CC(=O)Nc1c(C)cccc1C` [lidocaine] as the compound, how does the therapeutic plasma level ([1]; in vivo) read?
A: 0.2-0.5 mg/100 ml

Q: And the “toxic level (plasma)” value ([1]; in vivo)?
A: 0.7-0.9 mg/100 ml

Q: And the “duration of adequate plasma levels” value ([1]; intramuscular route)?
A: ≥ 2 h

Q: And the “time to adequate plasma levels” value ([1]; intramuscular route)?
A: 30 min

Q: What about the “intact drug excreted in urine” value ([1]; urine) of the same compound?
A: 5-10%

Q: What about the “Area (tumor)” value (M3 tumor; day 10 p-t, regimens as Table 5 footnotes, saline control 0.92) of the same compound?
A: 0.55

Q: What about the “I/Ø: Percentual increment over tumor in day 0 (day 7 p-t)” value (“I/Ø: Percentual increment … (day 7 p-t)” below) (M3 tumor; day 18 p-t, saline control 701.39) of the same compound?
A: 200.52%

Q: What about the “I/Ø: Percentual increment … (day 7 p-t)” value (M3 tumor; day 21 p-t, saline control 923.86) of the same compound?
A: 320.31%

Q: What about the “I/Ø: Percentual increment … (day 7 p-t)” value (M3 tumor; day 23 p-t, saline control 1119.69) of the same compound?
A: 530.47%

Q: And the Microscopic examination ([2]; Group A (0.05 ml lidocaine))?
A: Only minor balloonization of hepatocytes

Q: And the Microscopic examination ([2]; Group B (0.1 ml lidocaine))?
A: No alterations were found

Q: And the Microscopic examination ([2]; Group C (0.2 ml lidocaine))?
A: No alterations were found

Q: And the “Coloration of skin and mucosa” value ([2]; group C (0.2 ml lidocaine oral))?
A: no bluish coloration

Q: What about the “Coloration of skin and mucosa” value ([2]; groups A and B (0.05 and 0.1 ml lidocaine oral)) of the same compound?
A: presented a bluish coloration of skin and mucosa

Q: And the Mortality ([2]; groups A, B, C: 20mg CuSO₄ i.p. + 0.05, 0.1 or 0.2 ml lidocaine oral twice a day 2 days, all untreated died from 48 hours)?
A: No mortality was found

Q: And the “Lesions, kidney” value (Histoplasma capsulatum; Day 5 pi)?
A: no lesions

Q: What about the “Lesions, liver” value (Histoplasma capsulatum; Day 5 pi) of the same compound?
A: small amount of necrosis

Q: And the “Lesions, lung” value (Histoplasma capsulatum; Day 5 pi)?
A: no lesions

Q: And the “Lesions, pancreas” value (Histoplasma capsulatum; Day 5 pi)?
A: no lesions

Q: What about the “Lesions, spleen” value (Histoplasma capsulatum; Day 5 pi) of the same compound?
A: no lesions

Q: And the “Lesions, kidney” value (Histoplasma capsulatum; Day 10 pi)?
A: no lesions

Q: What about the “Lesions, liver” value (Histoplasma capsulatum; Day 10 pi) of the same compound?
A: small amount of necrosis

Q: And the “Lesions, lung” value (Histoplasma capsulatum; Day 10 pi)?
A: no lesions

Q: What about the “Lesions, pancreas” value (Histoplasma capsulatum; Day 10 pi) of the same compound?
A: no lesions

Q: And the “Lesions, spleen” value (Histoplasma capsulatum; Day 10 pi)?
A: small amount granulomas

Q: What about the “Lesions, kidney” value (Histoplasma capsulatum; Day 15 pi) of the same compound?
A: no lesions

Q: What about the “Lesions, liver” value (Histoplasma capsulatum; Day 15 pi) of the same compound?
A: small amount of granulomas

Q: What about the “Lesions, lung” value (Histoplasma capsulatum; Day 15 pi) of the same compound?
A: granulomas

Q: And the “Lesions, pancreas” value (Histoplasma capsulatum; Day 15 pi)?
A: no lesions

Q: What about the “Lesions, spleen” value (Histoplasma capsulatum; Day 15 pi) of the same compound?
A: small amount granuloma

Q: What about the Lung microscopic examination (Mycoplasma pneumoniae) of the same compound?
A: scarce pneumonic foci

Q: And the “I/Ø: Percentual increment … (day 7 p-t)” value ([3]; Group A (single dose), day 9 p-t)?
A: 10.93%

Q: What about the “I/Ø: Percentual increment … (day 7 p-t)” value ([3]; Group A (single dose), day 13 p-t) of the same compound?
A: 10.38%

Q: What about the “I/Ø: Percentual increment … (day 7 p-t)” value ([3]; Group A (single dose), day 15 p-t) of the same compound?
A: 23.50%

Q: And the “I/Ø: Percentual increment … (day 7 p-t)” value ([3]; Group A (single dose), day 17 p-t)?
A: 93.99%

Q: What about the “I/Ø: Percentual increment … (day 7 p-t)” value ([3]; Group A (single dose), day 20 p-t) of the same compound?
A: 206.01%

Q: What about the “I/Ø: Percentual increment … (day 7 p-t)” value ([3]; Group A (single dose), day 22 p-t) of the same compound?
A: 304.37%

Q: What about the “I/Ø: Percentual increment … (day 7 p-t)” value ([3]; Group A (single dose), day 24 p-t) of the same compound?
A: 554.64%

Q: And the “Area (tumor)” value ([3]; Group A, 0.1 ml 0.05% lidocaine i.p. once on day 8, day 7 p-t (before treatment))?
A: 0.37 cm²

Q: And the “Area (tumor)” value ([3]; Group A, 0.1 ml 0.05% lidocaine i.p. once on day 8, day 9 p-t)?
A: 0.41 cm²

Q: What about the “Area (tumor)” value ([3]; Group A, 0.1 ml 0.05% lidocaine i.p. once on day 8, day 13 p-t) of the same compound?
A: 0.40 cm²

Q: What about the “Area (tumor)” value ([3]; Group A, 0.1 ml 0.05% lidocaine i.p. once on day 8, day 15 p-t) of the same compound?
A: 0.45 cm²

Q: What about the “Area (tumor)” value ([3]; Group A, 0.1 ml 0.05% lidocaine i.p. once on day 8, day 17 p-t) of the same compound?
A: 0.71 cm²

Q: What about the “Area (tumor)” value ([3]; Group A, 0.1 ml 0.05% lidocaine i.p. once on day 8, day 20 p-t) of the same compound?
A: 1.12 cm²

Q: And the “Area (tumor)” value ([3]; Group A, 0.1 ml 0.05% lidocaine i.p. once on day 8, day 22 p-t)?
A: 1.48 cm²

Q: And the “Area (tumor)” value ([3]; Group A, 0.1 ml 0.05% lidocaine i.p. once on day 8, day 24 p-t)?
A: 2.40 cm²

Q: And the “I/Ø: Percentual increment … (day 7 p-t)” value ([3]; Group B (every 3 days), day 9 p-t)?
A: 4.76%

Q: What about the “I/Ø: Percentual increment … (day 7 p-t)” value ([3]; Group B (every 3 days), day 13 p-t) of the same compound?
A: 4.17%

Q: And the “I/Ø: Percentual increment … (day 7 p-t)” value ([3]; Group B (every 3 days), day 15 p-t)?
A: 62.50%

Q: What about the “I/Ø: Percentual increment … (day 7 p-t)” value ([3]; Group B (every 3 days), day 17 p-t) of the same compound?
A: 169.64%

Q: And the “I/Ø: Percentual increment … (day 7 p-t)” value ([3]; Group B (every 3 days), day 20 p-t)?
A: 289.88%

Q: And the “I/Ø: Percentual increment … (day 7 p-t)” value ([3]; Group B (every 3 days), day 22 p-t)?
A: 434.52%

Q: What about the “I/Ø: Percentual increment … (day 7 p-t)” value ([3]; Group B (every 3 days), day 24 p-t) of the same compound?
A: 559.52%

Q: And the “Area (tumor)” value ([3]; Group B, 0.1 ml 0.05% lidocaine i.p. every 3 days from day 8, day 7 p-t (before treatment))?
A: 0.34 cm²

Q: What about the “Area (tumor)” value ([3]; Group B, 0.1 ml 0.05% lidocaine i.p. every 3 days, day 9 p-t) of the same compound?
A: 0.35 cm²

Q: And the “Area (tumor)” value ([3]; Group B, 0.1 ml 0.05% lidocaine i.p. every 3 days, day 13 p-t)?
A: 0.35 cm²

Q: What about the “Area (tumor)” value ([3]; Group B, 0.1 ml 0.05% lidocaine i.p. every 3 days, day 15 p-t) of the same compound?
A: 0.55 cm²

Q: What about the “Area (tumor)” value ([3]; Group B, 0.1 ml 0.05% lidocaine i.p. every 3 days, day 17 p-t) of the same compound?
A: 0.91 cm²

Q: What about the “Area (tumor)” value ([3]; Group B, 0.1 ml 0.05% lidocaine i.p. every 3 days, day 20 p-t) of the same compound?
A: 1.31 cm²

Q: And the “Area (tumor)” value ([3]; Group B, 0.1 ml 0.05% lidocaine i.p. every 3 days, day 22 p-t)?
A: 1.80 cm²

Q: What about the “Area (tumor)” value ([3]; Group B, 0.1 ml 0.05% lidocaine i.p. every 3 days, day 24 p-t) of the same compound?
A: 2.22 cm²

Q: What about the “Tumor growth compared with 0.05% lidocaine” value ([3]; tumors treated with 0.005% and 0.001% lidocaine) of the same compound?
A: quite similar

From patent publication EP0643964A2 (priority 1993, dated 1995)
